Experimental data taken from publication PMC6488192 (2019).
These are yes or no findings as the source states them, for the method shown. In cells and extracts the contact can be indirect. Some results given as binding are weak or reduced against the parent protein; the word gives no strength. For part of these data: Sequences can lack the tags named with a protein.

Columns and labels:
[1] = molecular target: T1, ^H2F1 wild type with TAP tag (T. brucei) (UniProt Q585P3); test: pull-down; TAP-tagged bait recovered on Dynabeads IgG from whole-cell or mitochondria-enriched T. brucei extract (~2 mg protein, with RNase inhibitor); washes 150 mM NaCl, 1 mM EDTA, 10 mM MgOAc, 0.1% NP-40, 25 mM Tris pH 8.0; endogenous partners by Western blot, REL1 by radiolabelled self-adenylation; mutants normalised to WT
T1 sequence: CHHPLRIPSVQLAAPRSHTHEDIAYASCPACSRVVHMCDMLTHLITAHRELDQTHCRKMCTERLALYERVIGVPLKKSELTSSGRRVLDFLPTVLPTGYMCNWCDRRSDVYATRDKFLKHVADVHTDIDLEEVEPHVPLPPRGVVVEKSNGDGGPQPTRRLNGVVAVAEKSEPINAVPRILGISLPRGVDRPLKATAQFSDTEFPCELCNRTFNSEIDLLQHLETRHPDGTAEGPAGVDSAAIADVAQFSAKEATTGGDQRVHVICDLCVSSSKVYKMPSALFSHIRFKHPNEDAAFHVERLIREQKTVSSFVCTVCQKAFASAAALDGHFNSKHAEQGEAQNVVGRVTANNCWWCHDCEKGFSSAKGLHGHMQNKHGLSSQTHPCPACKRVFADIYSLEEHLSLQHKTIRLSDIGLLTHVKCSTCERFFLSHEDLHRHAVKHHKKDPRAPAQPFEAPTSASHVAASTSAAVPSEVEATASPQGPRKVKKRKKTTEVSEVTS

[2] = molecular target: T1, ^H2F1 wild type with TAP tag (T. brucei); test: pull-down; IgG pulldown of TAP-tagged ^H2F1 from extract treated with RNase A/T1 mix, 20 U/mg protein in the input extract and again on the beads; Western blot
[3] = molecular target: REH2 ΔAOB with TAP tag (T. brucei) (UniProt Q581T1); test: pull-down; TAP-tagged bait recovered on Dynabeads IgG from whole-cell or mitochondria-enriched T. brucei extract (~2 mg protein, with RNase inhibitor); washes 150 mM NaCl, 1 mM EDTA, 10 mM MgOAc, 0.1% NP-40, 25 mM Tris pH 8.0; endogenous partners by Western blot, REL1 by radiolabelled self-adenylation; mutants normalised to WT
[4] = molecular target: REH2 ΔOB with TAP tag (T. brucei) (UniProt Q581T1); test: as above
[5] = molecular target: RNA Editing Helicase 2 (REH2) wild type with TAP tag (T. brucei) (UniProt Q581T1); test: as above
[6] = molecular target: T1, ^H2F1 wild type with TAP tag (T. brucei); test: as above; remark: listed apart in the source

Measured: binding

RNA Editing Helicase 2 (REH2), endogenous (from UniProt Q581T1 31-2167) (enzyme)
binds: [1]

B1: REH2-Associated Factor 1 (^H2F1), endogenous (protein, UniProt Q585P3 23-524)
chain: T1 sequence
not listed: [1]
binds: all other assays above
